These are yes or no findings as the source states them, for the method shown. Some entries that bind do so weakly or less than the wild type.
Target: T1, RNaseH2C, subunit of RNaseH2 (human (endogenous in HEK293)) (UniProt Q8TDP1)
T1 sequence: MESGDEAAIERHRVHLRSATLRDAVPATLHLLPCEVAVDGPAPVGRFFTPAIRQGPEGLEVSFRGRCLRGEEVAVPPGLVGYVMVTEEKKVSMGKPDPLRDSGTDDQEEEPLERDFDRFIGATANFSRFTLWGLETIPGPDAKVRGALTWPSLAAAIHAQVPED
Assay: cryo-EM structure; endogenous PCNA-FEN1-RNaseH2 complex with bound DNA from glycerol gradient Fractions 9-12; four states (A-D), 5.2-6.6 Å, local map of RNaseH2 4.26 Å; RNaseH2 modelled from AlphaFold2 prediction fitted to the map

B1: RNaseH2B, subunit of RNaseH2 (protein, UniProt Q5TBB1 1-312)
chain: MAAGVDCGDGVGARQHVFLVSEYLKDASKKMKNGLMFVKLVNPCSGEGAIYLFNMCLQQLFEVKVFKEKHHSWFINQSVQSGGLLHFATPVDPLFLLLHYLIKADKEGKFQPLDQVVVDNVFPNCILLLKLPGLEKLLHHVTEEKGNPEIDNKKYYKYSKEKTLKWLEKKVNQTVAALKTNNVNVSSRVQSTAFFSGDQASTDKEEDYIRYAHGLISDYIPKELSDDLSKYLKLPEPSASLPNPPSKKIKLSDEPVEAKEDYTKFNTKDLKTEKKNSKMTAAQKALAKVDKSGMKSIDTFFGVKNKKKIGKV
Q: Which binding does the source give for B1 here?
A: binds
